Sequences of proteins named here, by UniProt entry; tags and fusion partners are left off. A change or cut given only in a name is not applied to a line headed by its entry.
UniProt P11881: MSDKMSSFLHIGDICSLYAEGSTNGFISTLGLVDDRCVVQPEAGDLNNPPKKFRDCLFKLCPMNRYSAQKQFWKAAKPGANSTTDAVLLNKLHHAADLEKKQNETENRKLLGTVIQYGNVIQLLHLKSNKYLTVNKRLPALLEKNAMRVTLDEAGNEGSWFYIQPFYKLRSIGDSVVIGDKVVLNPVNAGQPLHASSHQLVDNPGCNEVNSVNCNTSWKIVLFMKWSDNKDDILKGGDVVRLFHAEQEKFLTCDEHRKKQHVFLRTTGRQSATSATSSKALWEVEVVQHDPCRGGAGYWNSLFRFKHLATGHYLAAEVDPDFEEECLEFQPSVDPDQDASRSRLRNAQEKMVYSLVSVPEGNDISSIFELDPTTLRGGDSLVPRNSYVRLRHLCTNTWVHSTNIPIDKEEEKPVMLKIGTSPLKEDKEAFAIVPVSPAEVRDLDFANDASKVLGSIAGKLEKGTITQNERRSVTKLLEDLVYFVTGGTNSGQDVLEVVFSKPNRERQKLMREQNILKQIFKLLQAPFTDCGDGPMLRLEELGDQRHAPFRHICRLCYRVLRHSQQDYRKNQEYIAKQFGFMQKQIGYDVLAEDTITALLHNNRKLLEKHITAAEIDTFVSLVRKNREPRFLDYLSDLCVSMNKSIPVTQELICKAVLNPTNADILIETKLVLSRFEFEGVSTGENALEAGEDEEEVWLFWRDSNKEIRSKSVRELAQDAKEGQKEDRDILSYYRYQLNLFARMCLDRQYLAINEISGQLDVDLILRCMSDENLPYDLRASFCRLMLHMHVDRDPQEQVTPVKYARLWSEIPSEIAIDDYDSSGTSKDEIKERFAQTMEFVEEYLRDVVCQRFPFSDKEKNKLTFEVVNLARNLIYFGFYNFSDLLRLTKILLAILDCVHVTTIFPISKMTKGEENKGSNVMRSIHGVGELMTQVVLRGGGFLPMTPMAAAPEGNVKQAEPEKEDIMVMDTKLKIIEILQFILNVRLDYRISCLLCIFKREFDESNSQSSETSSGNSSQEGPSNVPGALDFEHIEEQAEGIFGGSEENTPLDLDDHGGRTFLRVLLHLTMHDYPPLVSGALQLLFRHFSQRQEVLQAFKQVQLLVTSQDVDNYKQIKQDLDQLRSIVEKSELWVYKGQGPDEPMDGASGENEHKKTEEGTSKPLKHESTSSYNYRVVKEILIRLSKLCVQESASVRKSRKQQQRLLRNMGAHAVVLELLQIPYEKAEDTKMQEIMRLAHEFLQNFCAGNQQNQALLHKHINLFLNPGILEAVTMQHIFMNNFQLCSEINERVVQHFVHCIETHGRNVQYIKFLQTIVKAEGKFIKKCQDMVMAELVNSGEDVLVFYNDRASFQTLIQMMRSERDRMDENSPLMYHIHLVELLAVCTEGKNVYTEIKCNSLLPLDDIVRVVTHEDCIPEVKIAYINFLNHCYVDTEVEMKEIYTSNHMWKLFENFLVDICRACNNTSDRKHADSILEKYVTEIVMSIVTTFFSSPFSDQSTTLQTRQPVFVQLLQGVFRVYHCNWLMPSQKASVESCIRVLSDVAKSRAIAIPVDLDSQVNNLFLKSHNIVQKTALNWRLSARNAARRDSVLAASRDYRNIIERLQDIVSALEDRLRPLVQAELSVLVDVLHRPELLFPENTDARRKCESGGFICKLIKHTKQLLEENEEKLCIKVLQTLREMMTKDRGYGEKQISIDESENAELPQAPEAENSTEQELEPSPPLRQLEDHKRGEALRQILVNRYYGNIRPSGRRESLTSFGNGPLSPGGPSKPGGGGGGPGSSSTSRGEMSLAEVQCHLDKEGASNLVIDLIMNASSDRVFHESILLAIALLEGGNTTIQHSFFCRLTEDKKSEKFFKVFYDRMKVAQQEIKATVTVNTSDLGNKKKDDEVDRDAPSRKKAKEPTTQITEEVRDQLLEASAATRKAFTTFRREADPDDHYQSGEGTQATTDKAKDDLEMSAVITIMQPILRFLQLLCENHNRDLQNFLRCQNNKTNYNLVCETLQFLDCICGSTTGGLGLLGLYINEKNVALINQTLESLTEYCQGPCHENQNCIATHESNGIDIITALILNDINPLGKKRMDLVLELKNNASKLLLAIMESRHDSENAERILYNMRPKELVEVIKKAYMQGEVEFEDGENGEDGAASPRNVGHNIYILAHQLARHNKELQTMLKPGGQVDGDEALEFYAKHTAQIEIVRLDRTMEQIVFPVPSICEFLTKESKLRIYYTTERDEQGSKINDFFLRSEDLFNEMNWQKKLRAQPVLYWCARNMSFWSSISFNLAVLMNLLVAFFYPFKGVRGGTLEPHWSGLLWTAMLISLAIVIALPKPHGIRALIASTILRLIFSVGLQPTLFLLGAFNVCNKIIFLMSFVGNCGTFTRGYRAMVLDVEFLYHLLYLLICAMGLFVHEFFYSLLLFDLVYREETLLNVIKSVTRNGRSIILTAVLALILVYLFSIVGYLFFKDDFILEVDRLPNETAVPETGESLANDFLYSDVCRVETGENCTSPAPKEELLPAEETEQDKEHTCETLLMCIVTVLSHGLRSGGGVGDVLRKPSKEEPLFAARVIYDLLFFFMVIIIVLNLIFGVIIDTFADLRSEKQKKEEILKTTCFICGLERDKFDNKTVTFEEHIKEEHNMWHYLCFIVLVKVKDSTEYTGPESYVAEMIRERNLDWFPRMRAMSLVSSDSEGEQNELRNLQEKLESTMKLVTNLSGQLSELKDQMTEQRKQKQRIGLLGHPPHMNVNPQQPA
UniProt Q60932: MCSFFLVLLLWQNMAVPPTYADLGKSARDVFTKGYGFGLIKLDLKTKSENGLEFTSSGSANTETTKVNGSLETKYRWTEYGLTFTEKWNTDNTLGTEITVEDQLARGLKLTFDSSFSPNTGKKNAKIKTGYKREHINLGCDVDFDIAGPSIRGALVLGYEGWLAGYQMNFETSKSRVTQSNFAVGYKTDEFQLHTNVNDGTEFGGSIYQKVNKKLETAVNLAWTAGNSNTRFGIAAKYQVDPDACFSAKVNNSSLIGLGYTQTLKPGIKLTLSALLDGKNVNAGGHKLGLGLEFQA

In paper PMC12781089:

Columns and labels:
[1] = target: T1, Parkin (mouse brain) (mouse (endogenous in brain)) (UniProt Q9WVS6); experiment: co-IP; Parkin antibody on Dynabeads Protein G, total lysates of ventral midbrain of mouse brain
T1 sequence: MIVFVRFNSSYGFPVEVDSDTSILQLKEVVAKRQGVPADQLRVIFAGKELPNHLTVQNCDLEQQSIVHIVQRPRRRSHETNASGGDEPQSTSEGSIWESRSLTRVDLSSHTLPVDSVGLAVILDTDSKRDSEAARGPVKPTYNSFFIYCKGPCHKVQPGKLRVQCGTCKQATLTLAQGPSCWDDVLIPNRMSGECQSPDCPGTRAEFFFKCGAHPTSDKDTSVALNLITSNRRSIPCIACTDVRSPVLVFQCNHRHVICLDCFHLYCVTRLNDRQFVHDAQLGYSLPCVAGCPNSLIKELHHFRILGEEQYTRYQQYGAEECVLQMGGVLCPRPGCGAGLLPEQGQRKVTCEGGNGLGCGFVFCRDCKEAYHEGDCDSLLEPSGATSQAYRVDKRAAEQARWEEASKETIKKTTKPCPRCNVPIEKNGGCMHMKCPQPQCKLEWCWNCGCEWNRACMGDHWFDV

[2] = target: T1, Parkin (mouse brain) (mouse (endogenous in brain)); experiment: co-IP; Parkin antibody on Dynabeads Protein G, MAM fractions prepared from the ventral midbrain of mouse brain
[3] = target: T1, Parkin (mouse brain) (mouse (endogenous in brain)); experiment: native gel or EMSA; BN-PAGE with immunoblot of crude mitochondria fractions from ventral midbrain of mouse brain
[4] = target: inositol-1,4,5-triphosphate receptor (IP3R), mouse brain (mouse (endogenous in brain)) (UniProt P11881); experiment: as above
[5] = target: inositol-1,4,5-triphosphate receptor (IP3R), mouse brain (mouse (endogenous in brain)) (UniProt P11881); experiment: co-IP; IP3R antibody on Dynabeads Protein G, brain homogenates (ventral midbrain lysates) of WT and Parkin KO mice
[6] = target: inositol-1,4,5-triphosphate receptor (IP3R), mouse brain (mouse (endogenous in brain)) (UniProt P11881); experiment: proximity ligation; Duolink in situ PLA with IP3R and VDAC1 antibodies on 10 um sections of mouse substantia nigra, co-stained for TH; WT and Parkin KO mice

Measured: binding

VDAC1, mouse brain (from UniProt Q60932)
binds: all assays above

No constants are given. Whether binding was seen depends on the method and setting. Binding can be weak; no strength is given. For part of these data: Binding seen in cells or lysates may run through a third protein.
